Measured values as given in PubChem BioAssay AID504444 (National Center for Advancing Translational Sciences (NCATS), 2011).
Screen size: about 360,000 compounds; about 7,500 (2.1%) were called active. The inconclusive results got no clear call from the source; some entries with a clear call stand among them for comparison. The call rests on the fitted dose curve; in most records, active means well fitted inhibition curve with a large enough effect; inconclusive means small, poorly fitted or top-dose-only effect, or effect the other way; inactive means flat fitted curve, though single readings scatter. Potencies beside an inconclusive call are fits to weak or partial responses and may not hold up.

Experiment: Nrf2 qHTS screen for inhibitors; further: nearly all actives have a fitted effect of over 60% in size
Details: A549 ARE-Fluc reporter, luciferase luminescence, 18-24 h; activity change, negative = inhibition: at 46 µM (top of the series)
Method in brief: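 A549 ARE_Fluc cells (5000/well, 5% FBS OPTI-MEM) pre-incubated 2 h, then treated with compounds 18-24 h at 37C/5% CO2 in concentration-response. CellTiter-Fluor viability read first; BugLite luciferase luminescence after 15 min at room temperature gives Nrf2 activity.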
On the % scale 0 is the no-effect control and ±100 the full control effect; potency means the concentration at half of the fitted maximal effect.

SMILES | Potency | activity change, negative = inhibition
CC(=O)Nc1cccc(C(=O)NC2CCCc3c2cnn3-c2ccc(C(C)(C)C)cc2)c1 (stereo not given) | inconclusive: 29.1 µM [falling, single point] | 
CC1CCN(C2(O)C(=O)Nc3ccc(Cl)cc32)CC1 (stereo not given) |  | inactive: 8.78%
COC(=O)Cn1c(=NC(=O)c2ccc(OC)cc2)sc2cc(OC)ccc21 |  | inactive: 6.55%
COc1cccc(N2CCN(C(=O)c3c(C)oc4ncnc(N5CCOCC5)c34)CC2)c1 | inconclusive: 8.2 µM [activator, partial curve, poor fit] | 
CCn1c(=O)n(CC)c2cc(N3CCCCC3)c(NC(=O)Nc3ccccc3Cl)cc21 | inconclusive: 23.1 µM [falling, single point] | 
O=C(c1ccc(Cn2cc(Br)cn2)cc1)N1CCN(c2ccccc2)CC1 | inconclusive: 20.6 µM [falling, partial curve, poor fit] | 
O=C1c2ccccc2C(=O)N1CCOc1ccccc1Br | inconclusive: 29.1 µM [activator, single point] | 
COc1ccc(N2C(=O)CC(Sc3nnc(-c4ccccc4)o3)C2=O)cc1 (stereo not given) |  | inactive: 0.814%
Nc1ncnc2c(C3OC(CO)C(O)C3O)c[nH]c12 (stereo not given) | active: 0.231 µM | 
O=C1OCCN1C(=O)[C@H]1[C@H](c2ccc(F)cc2)C(c2ccc(F)cc2)=NN1c1ccc(Br)cc1 | inconclusive: 29.1 µM [falling, single point] | 
CCOc1ccc(CCNC(=O)c2cc3c(=O)[nH]c4ccc(C)cc4c3s2)cc1OCC | inconclusive: 23.1 µM [falling, partial curve] | 
Cc1ccc(Cl)cc1NC(=O)CNC(=O)N1CC(=O)Nc2ccccc21 |  | inactive: 5.04%
CCN1C(=O)/C(=C2/C=CC=CN2C)SC1=S | inconclusive: 0.146 µM [activator, full curve, poor fit] | 
COc1cccc(SCC(=O)N2CCN(c3ccccc3)CC2)c1 | inconclusive: 20.6 µM [falling, partial curve, poor fit] | 
O=C(N/N=C/c1ccc([N+](=O)[O-])o1)c1ccncc1 | inconclusive: 25.9 µM [falling, single point] | 
Cc1cccc(C2Nc3cccc4cccc(c34)N2)c1 | inconclusive: 18.4 µM [falling, single point] | 
O=C(CSc1nc2ncc(Cl)cc2[nH]1)Nc1ccccc1-c1ccccc1 | inconclusive: 29.1 µM [falling, single point] | 
CC(C)(C)NC(=O)C(=O)N/N=C/c1ccc(F)cc1 | inconclusive: 8.2 µM [activator, partial curve] | 
N#Cc1nc(-c2ccc(OCc3ccc(Cl)cc3)cc2)oc1N1CCCC1 |  | inactive: 6.68%
Cc1ccsc1/C=N/Nc1cccc(C(=O)O)c1 | inconclusive: 10.3 µM [activator, partial curve] | 
COc1ccc(NC(=O)Cn2c(=O)oc3cc(S(=O)(=O)N4CCC(C)CC4)ccc32)c(OC)c1 | inconclusive: 14.6 µM [falling, partial curve] | 
CCCS(=O)(=O)c1c(Nc2ccccc2C)sc(C(=O)c2ccccc2)c1N | inconclusive: 29.1 µM [falling, single point] | 
CCOc1ccc(Nc2nc(N)c3ccccc3n2)cc1 | inconclusive: 1.46 µM [activator, partial curve] | 
O=C(CCC(=O)N1CCOc2ccccc21)NC1CCCCCC1 | inconclusive: 0.146 µM [falling, full curve, poor fit] | 

SMILES | Potency | activity change, negative = inhibition
CCOc1ccccc1CN1CCC(n2nccc2NC(=O)CCc2ccccc2)CC1 | inconclusive: 13 µM [activator, partial curve, poor fit] | 
CCOc1ccccc1CNC(=O)CCn1ccc2cc(S(=O)(=O)N3CCC(C)CC3)ccc21 | inconclusive: 23.1 µM [falling, single point] | 
COC(=O)c1ccc(Cn2nnc3sc4c(c3c2=O)CCC(C)C4)cc1 (stereo not given) | inconclusive: 16.4 µM [activator, partial curve] | 
CCCCNC(=O)CSc1nc2ccccc2c(=O)n1Cc1ccc2c(c1)OCO2 | inconclusive: 0.0411 µM [falling, partial curve, poor fit] | 
NC(=O)c1c(NC(=O)c2ccc(S(=O)(=O)N3CCOCC3)cc2)sc2c1CCCCC2 | inconclusive: 29.1 µM [falling, single point] | 
CCN(CC)C(=O)CSc1nc(-c2ccccc2F)nc2c1Cc1c(CO)cnc(C)c1O2 |  | inactive: -29.9%
Cc1ccc(C(=O)Nc2ncnc3sc4c(c23)CCCCC4)cc1 | inconclusive: 18.4 µM [falling, single point] | 
Cc1cccc(/C=C(\c2nc3ccccc3[nH]2)S(=O)(=O)c2ccccc2)c1 | active: 23.1 µM | 
COc1ccc(CC(=O)NNC(=O)COc2ccc(C)cc2)cc1S(=O)(=O)N1CCOCC1 |  | inactive: 1.23%
COc1ccc(NS(=O)(=O)c2ccc(OC)c(N(C)S(=O)(=O)c3ccc(Cl)cc3)c2)cc1 | active: 7.31 µM | 
Cc1cc(C)c(C#N)c(SCCS(=O)(=O)Cc2ccccc2)n1 | inconclusive: 29.1 µM [falling, partial curve, poor fit] | 
COc1ccc(C(=O)N/N=C/c2sc3ccccc3c2O)cc1 | inconclusive: 29.1 µM [falling, single point] | 
S=C(N/N=C/c1ccc(Cl)c(Cl)c1)Nc1ccccc1Cl | inconclusive: 32.6 µM [falling, single point] | 
NC(=O)CC(NC(=O)Cc1cccc2ccccc12)c1ccc(NC2CCN(Cc3ccccc3)CC2)c([N+](=O)[O-])c1 (stereo not given) | inconclusive: 29.1 µM [falling, single point] | 
CCOc1ccc(/C=C2\SC(=S)N(C(C(=O)O)c3ccccc3)C2=O)cc1OC (stereo not given) |  | inactive: 19.1%
N#CCC(=O)Nc1nc(-c2ccc3c(c2)OCCO3)cs1 | inconclusive: 18.4 µM [activator, single point] | 
CC(=O)c1cccc(NC(=O)c2sc(-n3nc(C)c(Cc4ccc5c(c4)OCO5)c3C)nc2C)c1 | active: 9.2 µM | 
CCOC(=O)N1CCN(C(c2cccc(OC)c2)c2sc3nc(C)nn3c2O)CC1 (stereo not given) | inconclusive: 7.31 µM [falling, single point] | 
CCOc1ccc(-c2nnc(-c3cccs3)o2)cc1OCC |  | inactive: 16.4%
[O-][n+]1onc2c1CCc1c-2nn(-c2ccccc2Cl)[n+]1[O-] | inconclusive: 14.6 µM [falling, partial curve, poor fit] | 
COc1ccnc(N=CNOCc2ccc(C)cc2)c1C#N |  | inactive: 14.1%
CCOc1ccc2nc(NC(=O)C3CCN(c4cnccn4)CC3)sc2c1 | inconclusive: 11.6 µM [falling, partial curve] | 
Cc1ccc(C(C#N)c2ccc(C(=O)c3ccc(F)cc3)cc2)cc1 (stereo not given) | active: 25.9 µM | 
CCC(Sc1nc2ccsc2c(=O)n1Cc1ccc(C(=O)O)cc1)C(=O)Nc1ccc(C)c(Cl)c1 (stereo not given) | inconclusive: 20.6 µM [falling, partial curve] | 

Part of the list above, as tab-separated lines:
SMILES	Potency	activity change, negative = inhibition
CCN(CC)C(=O)CSc1nc(-c2ccccc2F)nc2c1Cc1c(CO)cnc(C)c1O2		inactive: -29.9%
COc1ccc(CC(=O)NNC(=O)COc2ccc(C)cc2)cc1S(=O)(=O)N1CCOCC1		inactive: 1.23%
[O-][n+]1onc2c1CCc1c-2nn(-c2ccccc2Cl)[n+]1[O-]	inconclusive: 14.6 µM [falling, partial curve, poor fit]	

Next part:

SMILES | Potency | activity change, negative = inhibition
CC(C)CN1C(=O)c2ccc(C(=O)NCc3ccccn3)cc2C1=O | inconclusive: 25.9 µM [activator, single point] | 
NC(=O)c1ccc(N2CCN(c3ccc(O)cc3)CC2)c([N+](=O)[O-])c1 | active: 18.4 µM | 
S=C(NCCN1CCOCC1)Nc1cccc(Cl)c1 |  | inactive: 20.9%
Cc1c(-c2cccc(Cl)c2)nc2ccccc2c1C(=O)OCC(=O)Nc1ccc2c(c1)OCO2 | inconclusive: 20.6 µM [falling, single point] | 
CCc1ccc(C2c3[nH]c4ccccc4c3CCN2C(=O)c2cc(C)nn2C)cc1 (stereo not given) |  | inactive: 18.2%
CSc1ccc(C2NC(=O)c3c(sc4c3CCN(C)C4)N2)cc1 (stereo not given) | inconclusive: 1.3 µM [falling, full curve] | 
Cc1cc2c(cc1C)NC(=O)CC(c1ccccc1)=N2 | inconclusive: 10.3 µM [activator, partial curve] | 
CN(C1=NC(=O)C(CC(=O)Nc2ccc(Br)cc2)S1)c1ccc(O)cc1 (stereo not given) | active: 23.1 µM | 
O=C1c2ccccc2C(=O)N1Cc1ccncc1 |  | inactive: 9.07%
O=C(Nc1cccn2ncnc12)c1ccccc1 | inconclusive: 13 µM [activator, partial curve, poor fit] | 
Cc1cc(=O)oc2cc(OCC(=O)N3CCN(c4ccc(F)cc4)CC3)c(Cl)cc12 | inconclusive: 11.6 µM [falling, partial curve, poor fit] | 
NNC(=O)Cn1c(COc2ccc(Cl)cc2)nc2ccccc21 | inconclusive: 4.61 µM [falling, partial curve, poor fit] | 
Cc1ccccc1NC(=O)C1CCN(c2cc(-c3ccccc3)nc3ncnn23)CC1 | inconclusive: 23.1 µM [falling, single point] | 
COc1ccccc1NS(=O)(=O)c1cc(NC(=O)CCC(=O)c2cccs2)ccc1Cl | active: 8.2 µM | 
CCC(Cc1ccccc1)NC(=O)Cn1cccc1C(=O)c1ccccc1 (stereo not given) |  | inactive: 18.1%
COc1ccccc1/C=C1\CCCC2=C1Nc1nnnn1C2c1ccccc1OC (stereo not given) | inconclusive: 14.6 µM [falling, partial curve, poor fit] | 
C/C(=N\N=C(N)N)c1cc(Cl)ccc1Cl | active: 16.4 µM | 
FC(F)(F)c1ccc2c(c1)NCC1CCCN21 (stereo not given) | inconclusive: 29.1 µM [falling, single point] | 
Cc1nc(NS(=O)(=O)c2ccccc2)sc1NC(=O)Nc1ccc(Cl)cc1 |  | inactive: 7.06%
COc1ccccc1N1CCN(S(=O)(=O)c2cc(Br)cnc2N)CC1 | inconclusive: 29.1 µM [falling, single point] | 
Cc1ccc(-n2c(CC#N)n[nH]c2=S)c(C)c1 |  | inactive: 2.14%
COc1cccc(NC(=O)CN(C)C(=O)c2cccc(NS(=O)(=O)c3ccc(Br)cc3)c2)c1 | inconclusive: 25.9 µM [falling, partial curve, poor fit] | 
